These results are taken from patent US20070036786A1.

By UniProt entry, the sequences of proteins in these tests, tags left out. Where a name states a change or a piece, a line headed by the entry shows the natural chain unless it says otherwise.
UniProt P08637: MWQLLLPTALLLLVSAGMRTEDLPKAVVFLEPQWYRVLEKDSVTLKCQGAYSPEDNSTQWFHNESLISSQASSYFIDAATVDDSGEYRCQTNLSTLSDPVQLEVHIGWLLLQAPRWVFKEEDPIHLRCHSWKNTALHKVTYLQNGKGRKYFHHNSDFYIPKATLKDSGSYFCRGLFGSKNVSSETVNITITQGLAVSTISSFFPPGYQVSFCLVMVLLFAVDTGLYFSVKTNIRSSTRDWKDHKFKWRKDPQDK

These are yes or no findings as the source states them, for the method shown. Some binding calls cover weakened binding; strength is not graded here.

The target of the assay is soluble human CD16A (sCD16A) (human) (UniProt P08637). Nature of the assay: ELISA, captured sCD16A. A general note: In an ELISA, binding on a coated surface is turned into a signal by an enzyme label.

B1: hu3G8VH-32/hu3G8VL-1 (antibody)
VH: QITLKESGPTLVKPTQTLTLTCTFSGFSLSTSGVGVGWIRQPPGKALEWLALIWWDDDKRYSPSLKSRLTISKDTSKNQVVLTMTNMDPVDTATYYCARINPAWFAYWGQGTLVTVSS
light: DIVMTQSPDSLAVSLGERATINCKASQSVDFDGDSFMNWYQQKPGQPPKLLIYTTSNLESGVPDRFSGSGSGTDFTLTISSLQAEDVAVYYCQQSNEDPYTFGQGTKLEIKRTVAAPSVFIFPPSDEQLKSGTASVVCLLNNFYPREAKVQWKVDNALQSGNSQESVTEQDSKDSTYSLSSTLTLSKADYEKHKVYACEVTHQGLSSPVTKSFNRGEC
On to B1, for which the binding entry is on record as “binds”.
